Results on one molecule are retold here after PubChem BioAssay AID188 (DTP/NCI, 2004).

Shown are survivors of the treated group in tumour-free mice. Counts of survivors are from the toxicity check (mostly the fifth day) where no day follows; animals may have died later. Schedules are NCI's codes, read here as Q, the interval in days (D) or hours (H), X, the number of doses.

This assay relates to CD2F1 mice, nontumored, toxicity/survival. Put plainly: NCI In Vivo Anticancer Drug Screen. Data for tumor model Nontumored Animals (Toxicity Test) in CD2F1 (CDF1) mice. The settings on record: schedule: Q01DX009 (ip), vehicle: Klucel (hydroxypropylcellulose) (HPC).

With `CN(C)N=Nc1ccc(C#N)cc1`, the survivor count (dose: 118.0 mg/kg/injection) is reported as 10 of 10; the survivor count (dose: 177.0 mg/kg/injection) was 9 of 10; the survivor count (dose: 266.0 mg/kg/injection) is on record as 1 of 10; the survivor count (dose: 400.0 mg/kg/injection) is reported as 0 of 10; the survivor count (dose: 600.0 mg/kg/injection) was 0 of 10.
